{"source": "PubChem BioAssay AID686937 | Drosophila RNAi Screening Center – 2013", "test": "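Knock-downs that reduce output of a secreted reporter enzyme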 (primary screen)", "cell system": "Drosophila S2 cells expressing secreted horseradish peroxidase", "knock-down reagent": "long dsRNA against Drosophila genes", "duration": "about 5.5 days (5 days dsRNA, then 12 h reporter induction)", "conditions": "reporter expression induced after 5 days of dsRNA, read 12 h later; inducer not stated", "measured": "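Chemiluminescent measurement of peroxidase in the medium 12 h after reporter induction, following 5 days of dsRNA, given as a z-score per plate; higher means more secretion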", "direction": "z-score: higher = more reporter secreted into medium", "note": "The deposit covers about 23,000 reagents; this is a random part of those with a known target gene and a result. 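Reduced-secretion tags in replicate 1 do not always agree with the z-scores; no criterion for assigning the tags was given.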 A plus sign joins genes that one reagent is predicted to hit. Not all columns of the deposit are shown. Not stated in the record: the amount of reagent."}
{"Target gene": "Mhcl", "dsRNA": "DRSC13130", "z-score, replicate 1": 0.16}
{"Target gene": "Mhcl", "dsRNA": "DRSC14216", "z-score, replicate 1": 0.17}
{"Target gene": "Mhcl", "dsRNA": "DRSC16753", "z-score, replicate 1": 0.41}
{"Target gene": "Rpn12", "dsRNA": "DRSC11275", "z-score, replicate 1": -6.39, "phenotype, replicate 1": "reduced secretion"}
{"Target gene": "CG11837", "dsRNA": "DRSC14397", "z-score, replicate 1": 0.14}
{"Target gene": "CG30380", "dsRNA": "DRSC05069", "z-score, replicate 1": 0.17}
{"Target gene": "Cdc45", "dsRNA": "DRSC17747", "z-score, replicate 1": 0}
{"Target gene": "Cdc45", "dsRNA": "DRSC18164", "z-score, replicate 1": 0.04}
{"Target gene": "CG34331", "dsRNA": "DRSC20679", "z-score, replicate 1": 0.27}
{"Target gene": "CheB53b", "dsRNA": "DRSC05613", "z-score, replicate 1": 0.83}
{"Target gene": "MED19", "dsRNA": "DRSC10516", "z-score, replicate 1": -5.08, "phenotype, replicate 1": "reduced secretion"}
{"Target gene": "CG14567", "dsRNA": "DRSC11728", "z-score, replicate 1": 0.12}
{"Target gene": "CG5885", "dsRNA": "DRSC02910", "z-score, replicate 1": 0.31}
{"Target gene": "peb", "dsRNA": "DRSC18817", "z-score, replicate 1": 0.1}
{"Target gene": "nis", "dsRNA": "DRSC00290", "z-score, replicate 1": -0.46}
{"Target gene": "Cpr50Ca", "dsRNA": "DRSC05454", "z-score, replicate 1": 0.47}
{"Target gene": "Cpr50Ca", "dsRNA": "DRSC06372", "z-score, replicate 1": 0.4}
{"Target gene": "Cpr50Ca", "dsRNA": "DRSC06375", "z-score, replicate 1": 0.3}
{"Target gene": "ND-75", "dsRNA": "DRSC18686", "z-score, replicate 1": 0.24}
{"Target gene": "CG42699", "dsRNA": "DRSC18076", "z-score, replicate 1": 0.07}
{"Target gene": "CG42699", "dsRNA": "DRSC18341", "z-score, replicate 1": 0.53}
{"Target gene": "Mitofilin", "dsRNA": "DRSC16742", "z-score, replicate 1": -0.56}
{"Target gene": "CG4080", "dsRNA": "DRSC10398", "z-score, replicate 1": 0.4}
{"Target gene": "Cph", "dsRNA": "DRSC17507", "z-score, replicate 1": 1.07}
{"Target gene": "Cph", "dsRNA": "DRSC18434", "z-score, replicate 1": 0.37}
{"Target gene": "CG12783", "dsRNA": "DRSC14538", "z-score, replicate 1": 0.05}
{"Target gene": "COX7A", "dsRNA": "DRSC16514", "z-score, replicate 1": -0.42}
{"Target gene": "CG33230", "dsRNA": "DRSC08602", "z-score, replicate 1": 0.32}

Next part (5 carried over from the part before).
{"Target gene": "Cph", "dsRNA": "DRSC17507", "z-score, replicate 1": 1.07}
{"Target gene": "Cph", "dsRNA": "DRSC18434", "z-score, replicate 1": 0.37}
{"Target gene": "CG12783", "dsRNA": "DRSC14538", "z-score, replicate 1": 0.05}
{"Target gene": "COX7A", "dsRNA": "DRSC16514", "z-score, replicate 1": -0.42}
{"Target gene": "CG33230", "dsRNA": "DRSC08602", "z-score, replicate 1": 0.32}
{"Target gene": "CG6403", "dsRNA": "DRSC16033", "z-score, replicate 1": 0.5}
{"Target gene": "CG9312", "dsRNA": "DRSC16471", "z-score, replicate 1": 0.39}
{"Target gene": "CG6178", "dsRNA": "DRSC15984", "z-score, replicate 1": 0.5}
{"Target gene": "Cdc50", "dsRNA": "DRSC20224", "z-score, replicate 1": 0.45}
{"Target gene": "Recs1", "dsRNA": "DRSC16545", "z-score, replicate 1": 0.32}
{"Target gene": "Sras", "dsRNA": "DRSC11287", "z-score, replicate 1": 0.36}
{"Target gene": "CG15464 (retired record)", "dsRNA": "DRSC18047", "z-score, replicate 1": -0.04}
{"Target gene": "CG15464 (retired record)", "dsRNA": "DRSC22086", "z-score, replicate 1": 0.16}
{"Target gene": "twf", "dsRNA": "DRSC15466", "z-score, replicate 1": 0.28}
{"Target gene": "CG17806", "dsRNA": "DRSC15276", "z-score, replicate 1": 0.28}
{"Target gene": "Pmvk", "dsRNA": "DRSC02032", "z-score, replicate 1": 0.27}
{"Target gene": "Bhmt", "dsRNA": "DRSC02079", "z-score, replicate 1": 0.46}
{"Target gene": "Set2", "dsRNA": "DRSC19765", "z-score, replicate 1": 0.08}
{"Target gene": "CG13003", "dsRNA": "DRSC19522", "z-score, replicate 1": 0.38}
{"Target gene": "dmt", "dsRNA": "DRSC16932", "z-score, replicate 1": -2.15, "phenotype, replicate 1": "reduced secretion"}
{"Target gene": "CG31380", "dsRNA": "DRSC15688", "z-score, replicate 1": 0.07}
{"Target gene": "CG9175", "dsRNA": "DRSC03153", "z-score, replicate 1": -2.09, "phenotype, replicate 1": "reduced secretion"}
{"Target gene": "p23", "dsRNA": "DRSC15158", "z-score, replicate 1": 0.83}
{"Target gene": "CG5773", "dsRNA": "DRSC06955", "z-score, replicate 1": 0.42}
{"Target gene": "CG32462 + asRNA:CR43426", "dsRNA": "DRSC11851", "z-score, replicate 1": 0.25}
{"Target gene": "CG2772", "dsRNA": "DRSC00530", "z-score, replicate 1": -0.23}
{"Target gene": "opm", "dsRNA": "DRSC20141", "z-score, replicate 1": 0.1}
{"Target gene": "opm", "dsRNA": "DRSC22135", "z-score, replicate 1": -0.34, "phenotype, replicate 1": "reduced secretion"}
